PubChem BioAssay AID1259254, NCATS | 2017
Purpose: 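Genome-wide screen for genes that prevent DNA re-replication in cancer cells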 (primary screen). Cells: human HCT116 colorectal cancer cells. Reagents: single siRNA against human genes. Time to read-out: 3 days. Detection: 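Imaged Hoechst DNA stain sorts each cell into a cycle phase by DNA amount; per plate, G2 fraction set to 0% for non-targeting and 100% for GMNN siRNA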. Reading the numbers: G2 robust z-score and G2 cells, % of GMNN control: higher = more G2 cells, more excess DNA replication. Hit rule: 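Active siRNAs have a G2 robust z of 5 or more median absolute deviations over the median, which in these data means about 38% or higher of GMNN control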.
The deposit covers about 59,000 reagents; shown is a random part of them. Of all reagents, about 1,550 (2.6%) were called active. 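G2 share is only a proxy for re-replication; each gene was hit by three separate siRNAs, and active genes were retested.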 The numbers tell different reagents against one gene apart. Not all columns of the deposit are shown. Not stated in the record: the amount of reagent.

The opening 2 entries, ahead of the listing:
Target gene | reagent no. | G2 robust z-score | G2 cells, % of GMNN control | outcome
RPS12P22 (ribosomal protein S12 pseudogene 22) | 1 | 5.22 | 39.7 | active
RPS12P22 (ribosomal protein S12 pseudogene 22) | 2 | 2.36 | 19.6 | inactive

Results, repeating the preview:
Target gene | reagent no. | G2 robust z-score | G2 cells, % of GMNN control | outcome
RPS12P22 (ribosomal protein S12 pseudogene 22) | 1 | 5.22 | 39.7 | active
RPS12P22 (ribosomal protein S12 pseudogene 22) | 2 | 2.36 | 19.6 | inactive
RPS12P22 (ribosomal protein S12 pseudogene 22) | 3 | 4.41 | 34 | inactive
CRNN (cornulin) | 1 | 1.1 | 10.7 | inactive
CRNN (cornulin) | 2 | -1.07 | -4.59 | inactive
CRNN (cornulin) | 3 | -0.227 | 1.37 | inactive
RNF187 (ring finger protein 187) | 1 | -0.323 | 0.697 | inactive
RNF187 (ring finger protein 187) | 2 | 1.09 | 10.7 | inactive
RNF187 (ring finger protein 187) | 3 | -0.428 | -0.0473 | inactive
KLHL13 (kelch like family member 13) | 1 | 1.2 | 11.4 | inactive
KLHL13 (kelch like family member 13) | 2 | 0.928 | 9.5 | inactive
KLHL13 (kelch like family member 13) | 3 | 2.05 | 17.4 | inactive
GNG4 (G protein subunit gamma 4) | 1 | -0.0568 | 2.57 | inactive
GNG4 (G protein subunit gamma 4) | 2 | 1.98 | 16.9 | inactive
GNG4 (G protein subunit gamma 4) | 3 | -0.474 | -0.365 | inactive
CD84 (CD84 molecule) | 1 | 1.03 | 10.2 | inactive
CD84 (CD84 molecule) | 2 | 0.438 | 6.05 | inactive
CD84 (CD84 molecule) | 3 | 1.09 | 10.6 | inactive
RPLP0 (ribosomal protein lateral stalk subunit P0) | 1 | 4.57 | 35.1 | inactive
RPLP0 (ribosomal protein lateral stalk subunit P0) | 2 | 2.81 | 22.8 | inactive
RPLP0 (ribosomal protein lateral stalk subunit P0) | 3 | 3.45 | 27.3 | inactive
KDM5B (lysine demethylase 5B) | 1 | 0.39 | 5.71 | inactive
KDM5B (lysine demethylase 5B) | 2 | -1.16 | -5.23 | inactive
KDM5B (lysine demethylase 5B) | 3 | 2.03 | 17.2 | inactive
OR8G2P (olfactory receptor family 8 subfamily G member 2 pseudogene) | 1 | -0.337 | 0.593 | inactive
OR8G2P (olfactory receptor family 8 subfamily G member 2 pseudogene) | 2 | -1.08 | -4.6 | inactive
OR8G2P (olfactory receptor family 8 subfamily G member 2 pseudogene) | 3 | -0.801 | -2.67 | inactive
R3HDM1 (R3H domain containing 1) | 1 | -0.158 | 1.86 | inactive
R3HDM1 (R3H domain containing 1) | 2 | 0.0217 | 3.12 | inactive
R3HDM1 (R3H domain containing 1) | 3 | -0.908 | -3.42 | inactive
TFAP2B (transcription factor AP-2 beta) | 1 | 0.679 | 7.75 | inactive
TFAP2B (transcription factor AP-2 beta) | 2 | -0.813 | -2.75 | inactive
TFAP2B (transcription factor AP-2 beta) | 3 | -0.684 | -1.84 | inactive
KDM1B (lysine demethylase 1B) | 1 | 0.939 | 9.57 | inactive
KDM1B (lysine demethylase 1B) | 2 | -0.0566 | 2.57 | inactive
KDM1B (lysine demethylase 1B) | 3 | 0.373 | 5.59 | inactive
S100A7 (S100 calcium binding protein A7) | 1 | -0.103 | 2.24 | inactive
S100A7 (S100 calcium binding protein A7) | 2 | -0.32 | 0.716 | inactive
S100A7 (S100 calcium binding protein A7) | 3 | -0.926 | -3.55 | inactive
NVL (nuclear VCP like) | 1 | 0.756 | 8.29 | inactive
NVL (nuclear VCP like) | 2 | -0.379 | 0.3 | inactive
NVL (nuclear VCP like) | 3 | -0.0792 | 2.41 | inactive
AARS1 (alanyl-tRNA synthetase 1) | 1 | -0.727 | -2.15 | inactive
AARS1 (alanyl-tRNA synthetase 1) | 2 | 4.6 | 35.4 | inactive
AARS1 (alanyl-tRNA synthetase 1) | 3 | 1.07 | 10.5 | inactive
TMEM71 (transmembrane protein 71) | 1 | -0.102 | 2.25 | inactive
TMEM71 (transmembrane protein 71) | 2 | -0.603 | -1.28 | inactive
TMEM71 (transmembrane protein 71) | 3 | -0.297 | 0.876 | inactive
SSMEM1 (serine rich single-pass membrane protein 1) | 1 | 0.373 | 5.59 | inactive
SSMEM1 (serine rich single-pass membrane protein 1) | 2 | 0.812 | 8.68 | inactive
SSMEM1 (serine rich single-pass membrane protein 1) | 3 | -0.782 | -2.54 | inactive
CKS2 (CDC28 protein kinase regulatory subunit 2) | 1 | 0.237 | 4.64 | inactive
CKS2 (CDC28 protein kinase regulatory subunit 2) | 2 | -0.656 | -1.65 | inactive
CKS2 (CDC28 protein kinase regulatory subunit 2) | 3 | 0.211 | 4.45 | inactive
LINC02908 (long independently transcribed non-coding RNA 2908) | 1 | -0.481 | -0.414 | inactive
LINC02908 (long independently transcribed non-coding RNA 2908) | 2 | -0.104 | 2.24 | inactive
LINC02908 (long independently transcribed non-coding RNA 2908) | 3 | 2.41 | 19.9 | inactive
GEMIN7 (gem nuclear organelle associated protein 7) | 1 | 0.835 | 8.84 | inactive
GEMIN7 (gem nuclear organelle associated protein 7) | 2 | -0.539 | -0.826 | inactive
GEMIN7 (gem nuclear organelle associated protein 7) | 3 | -0.545 | -0.87 | inactive
EMX2 (empty spiracles homeobox 2) | 1 | 1.19 | 11.4 | inactive
EMX2 (empty spiracles homeobox 2) | 2 | 1.96 | 16.7 | inactive
EMX2 (empty spiracles homeobox 2) | 3 | -0.837 | -2.92 | inactive
POPDC3 (popeye domain cAMP effector 3) | 1 | -0.178 | 1.72 | inactive
POPDC3 (popeye domain cAMP effector 3) | 2 | 0.3 | 5.08 | inactive
POPDC3 (popeye domain cAMP effector 3) | 3 | -0.166 | 1.8 | inactive
ACIN1 (apoptotic chromatin condensation inducer 1) | 1 | 3.2 | 25.5 | inactive
ACIN1 (apoptotic chromatin condensation inducer 1) | 2 | 0.169 | 4.15 | inactive
ACIN1 (apoptotic chromatin condensation inducer 1) | 3 | 1.07 | 10.5 | inactive
